# Results from one PubChem assay

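A panel of P. falciparum strains inside erythrocytes is exposed to compounds for three days, then a DNA-binding dye reports the amount of parasite DNA.
Each compound was titrated across a series from about 0.000037 to 29 µM.
The number is the fitted AC50, the concentration giving a half-maximal change in signal; a lower value means higher potency, whether the curve shows a decrease or an increase.
Calls follow the curve class and fit quality: every row here is inconclusive, covering signal-raising curves and weak, poorly fitted, partial or highest-dose-only inhibition curves.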

Values are in µM.
All entries here are filed as inconclusive.
Only part of the assay is shown, chiefly results filed as inconclusive.
Potencies fitted to partial, single-point or poorly fitting curves are rough.
Some entries filed as inconclusive have a full curve.
The first word of each remark tells which way the curve ran; it can be opposite to the aim of the assay.

With O=S(=O)(O)c1cc(O)c2c(N=Nc3ccc(Nc4ccccc4)c4c(S(=O)(=O)O)cccc34)cc(S(=O)(=O)O)cc2c1 [CP269] the assay gave Potency 16.94 µM (inhibitor, partial curve, poor fit).
With O=S(=O)(O)c1cc(O)c2c(N=Nc3ccc(Nc4ccccc4)c4c(S(=O)(=O)O)cccc34)cc(S(=O)(=O)O)cc2c1 [CP217] the assay gave Potency 8.912 µM (inhibitor, single point).
With O=S(=O)(O)c1cc(O)c2c(N=Nc3ccc(Nc4ccccc4)c4c(S(=O)(=O)O)cccc34)cc(S(=O)(=O)O)cc2c1 [CP185] the assay gave Potency 12.59 µM (inhibitor, single point).
With O=S(=O)(O)c1cc(O)c2c(N=Nc3ccc(Nc4ccccc4)c4c(S(=O)(=O)O)cccc34)cc(S(=O)(=O)O)cc2c1 [TAB109] the assay gave Potency 7.943 µM (inhibitor, partial curve).
With C[C@](O)(CS(=O)(=O)c1ccc(F)cc1)C(=O)Nc1ccc(C#N)c(C(F)(F)F)c1 [ECU] the assay gave Potency 3.981 µM (inhibitor, single point).
With C[C@](O)(CS(=O)(=O)c1ccc(F)cc1)C(=O)Nc1ccc(C#N)c(C(F)(F)F)c1 [CP203] the assay gave Potency 12 µM (inhibitor, partial curve, poor fit).
With C[C@](O)(CS(=O)(=O)c1ccc(F)cc1)C(=O)Nc1ccc(C#N)c(C(F)(F)F)c1 [TAB109] the assay gave Potency 3.981 µM (inhibitor, single point).
With C[C@](O)(CS(=O)(=O)c1ccc(F)cc1)C(=O)Nc1ccc(C#N)c(C(F)(F)F)c1 [DIV17] the assay gave Potency 5.358 µM (inhibitor, partial curve).
With C[C@](O)(CS(=O)(=O)c1ccc(F)cc1)C(=O)Nc1ccc(C#N)c(C(F)(F)F)c1 [7G8] the assay gave Potency 11.22 µM (inhibitor, partial curve).
With C[C@](O)(CS(=O)(=O)c1ccc(F)cc1)C(=O)Nc1ccc(C#N)c(C(F)(F)F)c1 [DIV14] the assay gave Potency 6.746 µM (inhibitor, partial curve).
With CC(C)NC[C@H](O)COc1ccc(CC(N)=O)cc1 [CP266] the assay gave Potency 0.012 µM (activator).
With CC(C)NC[C@H](O)COc1ccc(CC(N)=O)cc1 [parasite line B] the assay gave Potency 17.78 µM (inhibitor, single point).
With CC(C)NC[C@H](O)COc1ccc(CC(N)=O)cc1 [CP297] the assay gave Potency 0.0849 µM (inhibitor, full curve).
With CC(C)c1ccc2oc3nc(N)c(C(=O)O)cc3c(=O)c2c1 [CP250] the assay gave Potency 6.31 µM (inhibitor, partial curve).
With CC(C)c1ccc2oc3nc(N)c(C(=O)O)cc3c(=O)c2c1 [CP266] the assay gave Potency 21.33 µM (inhibitor, single point).
With CC(C)c1ccc2oc3nc(N)c(C(=O)O)cc3c(=O)c2c1 [AS120] the assay gave Potency 12.59 µM (inhibitor, single point).
With CC(C)c1ccc2oc3nc(N)c(C(=O)O)cc3c(=O)c2c1 [CP191] the assay gave Potency 8.912 µM (inhibitor, single point).
With CC(C)c1ccc2oc3nc(N)c(C(=O)O)cc3c(=O)c2c1 [ECU] the assay gave Potency 10 µM (inhibitor, single point).
With CC(C)c1ccc2oc3nc(N)c(C(=O)O)cc3c(=O)c2c1 [SC27B] the assay gave Potency 12.59 µM (inhibitor, single point).
With CC(C)c1ccc2oc3nc(N)c(C(=O)O)cc3c(=O)c2c1 [W2] the assay gave Potency 13.46 µM (inhibitor, partial curve, poor fit).
With CC(C)c1ccc2oc3nc(N)c(C(=O)O)cc3c(=O)c2c1 [AA1029] the assay gave Potency 3.548 µM (inhibitor, partial curve, poor fit).
With CC(C)c1ccc2oc3nc(N)c(C(=O)O)cc3c(=O)c2c1 [PAD] the assay gave Potency 0.3162 µM (inhibitor, full curve, poor fit).
With CC(C)c1ccc2oc3nc(N)c(C(=O)O)cc3c(=O)c2c1 [TAB113] the assay gave Potency 3.981 µM (inhibitor, single point).
With CC(C)c1ccc2oc3nc(N)c(C(=O)O)cc3c(=O)c2c1 [CP252] the assay gave Potency 17.78 µM (inhibitor, single point).
With CC(C)c1ccc2oc3nc(N)c(C(=O)O)cc3c(=O)c2c1 [CP260] the assay gave Potency 11.22 µM (inhibitor, single point).
With CC(C)c1ccc2oc3nc(N)c(C(=O)O)cc3c(=O)c2c1 [7G8] the assay gave Potency 12.59 µM (inhibitor, single point).
With CC(C)c1ccc2oc3nc(N)c(C(=O)O)cc3c(=O)c2c1 [CP217] the assay gave Potency 17.78 µM (inhibitor, single point).
With CC(C)(C)NC[C@@H](O)COc1ccccc1C1CCCC1 [CP265] the assay gave Potency 7.08 µM (inhibitor, single point).

The results are deposited in PubChem (AID504749; NCATS, 2011).